Experimental data published in paper PMC5779225.
No constants are given. Whether binding was seen depends on the method and setting. Binding seen in cells or lysates may run through a third protein. Some binding calls cover weakened binding; strength is not graded here. Tags and fused reporters may be left off the sequences shown. Each block holds one binder with its values, some of them ahead of it.

Experiments:
Shisa2-MycHis (mouse) = target: T1, Shisa2-MycHis (mouse) (UniProt Q8QZV2); assay: co-IP; HEK293T cells lysed 48 hr after transfection in IP buffer (20 mM Tris HCl pH 7.5, 150 mM NaCl, 1 mM EGTA, 0.1% TX-100); immunoprecipitated with anti-HA or anti-Myc antibodies and protein A/G agarose; immunoblot
T1 sequence: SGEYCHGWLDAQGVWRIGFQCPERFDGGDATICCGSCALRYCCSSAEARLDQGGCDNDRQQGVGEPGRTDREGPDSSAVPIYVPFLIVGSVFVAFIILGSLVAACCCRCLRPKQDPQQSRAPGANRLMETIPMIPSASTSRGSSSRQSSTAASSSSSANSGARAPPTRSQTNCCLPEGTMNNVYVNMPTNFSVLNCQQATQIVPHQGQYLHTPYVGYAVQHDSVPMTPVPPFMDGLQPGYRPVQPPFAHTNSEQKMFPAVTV

[1] = target: T2, Frizzled3 (Fzd3)-HA (mouse) (UniProt Q61086); assay: as above
T2 sequence: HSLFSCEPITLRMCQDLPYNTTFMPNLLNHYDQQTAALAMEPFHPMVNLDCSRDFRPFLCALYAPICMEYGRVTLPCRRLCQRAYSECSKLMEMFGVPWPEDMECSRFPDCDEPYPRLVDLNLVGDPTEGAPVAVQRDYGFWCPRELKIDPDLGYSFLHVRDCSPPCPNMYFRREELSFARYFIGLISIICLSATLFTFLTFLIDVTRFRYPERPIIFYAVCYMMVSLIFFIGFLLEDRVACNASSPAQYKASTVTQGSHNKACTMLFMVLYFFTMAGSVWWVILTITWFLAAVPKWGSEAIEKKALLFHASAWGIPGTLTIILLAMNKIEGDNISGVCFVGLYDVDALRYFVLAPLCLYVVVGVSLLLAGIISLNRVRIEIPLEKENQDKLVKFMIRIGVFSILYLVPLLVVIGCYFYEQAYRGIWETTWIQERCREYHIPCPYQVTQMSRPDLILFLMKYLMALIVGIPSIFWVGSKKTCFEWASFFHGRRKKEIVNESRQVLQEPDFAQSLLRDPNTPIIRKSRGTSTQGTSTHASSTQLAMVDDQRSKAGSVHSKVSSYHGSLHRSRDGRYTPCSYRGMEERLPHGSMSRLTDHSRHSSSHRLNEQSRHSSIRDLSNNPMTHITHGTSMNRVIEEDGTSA

binding (Shisa2-MycHis (mouse)): binds
B1: Frizzled3 (Fzd3)-HA (receptor, UniProt Q61086 23-666)
chain: T2 sequence

binding [1]: binds
B2: Shisa2-MycHis (protein, UniProt Q8QZV2 34-295)
chain: T1 sequence
